# According to article PMC7321161, “The Intriguing Effects of Substituents in the N-Phenethyl Moiety of Norhydromorphone: A Bifunctional Opioid from a Set of “Tail Wags Dog” Experiments” (Molecules, 2020):
# Several values for one entry are separate records, joined by “and”; a condition that tells them apart may be missing. Equal values may be shown once.
# Legend:
# squirrel monkeys [1] = assay: Operant responding (FR10 food reinforcement) in squirrel monkeys
# squirrel monkeys [2] = assay: Squirrel monkey ventilation (whole-body plethysmograph, air or 5% CO2); assay type: in vivo, Saimiri sciureus; conditions: ratio of ED50 values
# Procedure: Gas (either air or a 5% CO2 in air mixture) was introduced to and extracted from the chamber at a constant flow rate of 5 L/min. Experimental sessions consisted of 4–6 consecutive 30 min cycles, each comprising a 15 min exposure to air followed by a 15 min exposure to 5% CO2. Drug effects were determined using cumulative dosing procedures, and injections were administered following each exposure to 5% CO2. Respiratory rate and tidal volume (mL/breath) were recorded over 1 min periods and were multiplied to provide minute volumes. Data from the last three minutes of each exposure to air or CO2 were averaged and used for analysis of drug effects on ventilation.
structure (smiles),measurement,setting,value
"O=C1CCC2C3Cc4ccc(O)c5c4[C@@]2(CCN3CCc2ccc(Cl)cc2)[C@H]1O5 (stereo partly drawn) [Compound 2i, (7aR,12bS)-3-(4-Chlorophenethyl)-9-hydroxy-2,3,4,4a,5,6-hexahydro-1H-4,12-methanobenzofuro[3,2-e]-isoquinolin-7(7aH)-one]",ED50 ratios (behavioral impairment/antinociception),squirrel monkeys [1]; antinociception at 50 °C or 52 °C,≤ 2
same,Potency Ratio Behavioral Disruption: Antinociception,"squirrel monkeys [1]; ratio of ED50 values, 52 °C",1.5
same,Potency Ratio Respiratory Depression: Antinociception,squirrel monkeys [2],3.9
same,Potency Ratio Respiratory Depression: Behavioral Disruption,squirrel monkeys [2],2 and 2.6
